Laboratory results reported in the supplement of paper PMC6411743.
± gives the standard deviation of the averaged measurements. This is a selection; strong and weak results do not stand in their true shares. Most values lie at the level of the controls, where differences are scatter.

The chains behind the UniProt entries cited, without tags or fusion partners. Where a name states a change or a piece, a line headed by the entry shows the natural chain unless it says otherwise.
UniProt P30414: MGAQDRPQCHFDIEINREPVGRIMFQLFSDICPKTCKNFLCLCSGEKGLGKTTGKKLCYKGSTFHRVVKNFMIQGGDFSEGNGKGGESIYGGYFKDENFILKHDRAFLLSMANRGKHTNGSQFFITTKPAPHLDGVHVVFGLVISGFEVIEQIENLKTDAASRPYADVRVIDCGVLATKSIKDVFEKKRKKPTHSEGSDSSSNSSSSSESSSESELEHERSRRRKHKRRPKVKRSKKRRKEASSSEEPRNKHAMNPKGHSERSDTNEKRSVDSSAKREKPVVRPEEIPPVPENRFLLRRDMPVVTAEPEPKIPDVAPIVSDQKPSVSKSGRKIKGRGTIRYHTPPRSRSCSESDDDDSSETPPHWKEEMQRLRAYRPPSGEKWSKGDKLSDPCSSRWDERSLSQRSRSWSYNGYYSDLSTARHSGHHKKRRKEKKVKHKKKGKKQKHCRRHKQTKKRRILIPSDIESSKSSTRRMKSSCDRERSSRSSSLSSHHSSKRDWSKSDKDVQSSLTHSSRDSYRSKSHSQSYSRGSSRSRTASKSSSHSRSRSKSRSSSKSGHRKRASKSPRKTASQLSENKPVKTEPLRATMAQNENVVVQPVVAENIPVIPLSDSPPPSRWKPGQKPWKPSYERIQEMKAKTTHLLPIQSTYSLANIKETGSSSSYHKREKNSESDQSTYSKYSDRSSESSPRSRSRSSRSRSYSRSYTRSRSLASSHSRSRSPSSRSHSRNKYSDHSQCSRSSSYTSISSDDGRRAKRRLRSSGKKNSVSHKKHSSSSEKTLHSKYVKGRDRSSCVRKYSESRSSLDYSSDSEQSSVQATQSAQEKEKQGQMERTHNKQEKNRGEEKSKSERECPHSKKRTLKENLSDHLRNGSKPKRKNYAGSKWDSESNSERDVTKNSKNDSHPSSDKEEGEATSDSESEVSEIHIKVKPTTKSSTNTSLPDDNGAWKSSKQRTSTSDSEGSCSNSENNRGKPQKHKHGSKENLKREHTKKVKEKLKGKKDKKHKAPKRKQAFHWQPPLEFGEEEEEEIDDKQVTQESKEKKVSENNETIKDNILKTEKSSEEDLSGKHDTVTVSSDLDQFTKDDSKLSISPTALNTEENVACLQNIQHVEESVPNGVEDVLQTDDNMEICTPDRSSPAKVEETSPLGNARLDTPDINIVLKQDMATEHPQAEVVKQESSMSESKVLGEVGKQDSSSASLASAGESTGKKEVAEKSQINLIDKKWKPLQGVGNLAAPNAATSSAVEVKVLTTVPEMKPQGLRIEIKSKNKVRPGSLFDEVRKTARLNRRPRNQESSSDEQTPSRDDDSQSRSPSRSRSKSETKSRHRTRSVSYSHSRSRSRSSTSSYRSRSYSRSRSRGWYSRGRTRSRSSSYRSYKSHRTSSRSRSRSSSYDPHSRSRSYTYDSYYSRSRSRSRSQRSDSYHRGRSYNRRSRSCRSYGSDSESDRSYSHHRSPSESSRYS
UniProt P17483: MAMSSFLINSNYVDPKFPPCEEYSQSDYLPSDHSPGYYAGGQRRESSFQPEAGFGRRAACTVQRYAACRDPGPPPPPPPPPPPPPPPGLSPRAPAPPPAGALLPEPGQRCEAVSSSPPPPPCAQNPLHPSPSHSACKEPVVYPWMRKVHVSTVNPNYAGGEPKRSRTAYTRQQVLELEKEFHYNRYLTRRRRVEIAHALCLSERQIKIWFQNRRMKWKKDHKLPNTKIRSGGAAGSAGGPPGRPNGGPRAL
UniProt P18583: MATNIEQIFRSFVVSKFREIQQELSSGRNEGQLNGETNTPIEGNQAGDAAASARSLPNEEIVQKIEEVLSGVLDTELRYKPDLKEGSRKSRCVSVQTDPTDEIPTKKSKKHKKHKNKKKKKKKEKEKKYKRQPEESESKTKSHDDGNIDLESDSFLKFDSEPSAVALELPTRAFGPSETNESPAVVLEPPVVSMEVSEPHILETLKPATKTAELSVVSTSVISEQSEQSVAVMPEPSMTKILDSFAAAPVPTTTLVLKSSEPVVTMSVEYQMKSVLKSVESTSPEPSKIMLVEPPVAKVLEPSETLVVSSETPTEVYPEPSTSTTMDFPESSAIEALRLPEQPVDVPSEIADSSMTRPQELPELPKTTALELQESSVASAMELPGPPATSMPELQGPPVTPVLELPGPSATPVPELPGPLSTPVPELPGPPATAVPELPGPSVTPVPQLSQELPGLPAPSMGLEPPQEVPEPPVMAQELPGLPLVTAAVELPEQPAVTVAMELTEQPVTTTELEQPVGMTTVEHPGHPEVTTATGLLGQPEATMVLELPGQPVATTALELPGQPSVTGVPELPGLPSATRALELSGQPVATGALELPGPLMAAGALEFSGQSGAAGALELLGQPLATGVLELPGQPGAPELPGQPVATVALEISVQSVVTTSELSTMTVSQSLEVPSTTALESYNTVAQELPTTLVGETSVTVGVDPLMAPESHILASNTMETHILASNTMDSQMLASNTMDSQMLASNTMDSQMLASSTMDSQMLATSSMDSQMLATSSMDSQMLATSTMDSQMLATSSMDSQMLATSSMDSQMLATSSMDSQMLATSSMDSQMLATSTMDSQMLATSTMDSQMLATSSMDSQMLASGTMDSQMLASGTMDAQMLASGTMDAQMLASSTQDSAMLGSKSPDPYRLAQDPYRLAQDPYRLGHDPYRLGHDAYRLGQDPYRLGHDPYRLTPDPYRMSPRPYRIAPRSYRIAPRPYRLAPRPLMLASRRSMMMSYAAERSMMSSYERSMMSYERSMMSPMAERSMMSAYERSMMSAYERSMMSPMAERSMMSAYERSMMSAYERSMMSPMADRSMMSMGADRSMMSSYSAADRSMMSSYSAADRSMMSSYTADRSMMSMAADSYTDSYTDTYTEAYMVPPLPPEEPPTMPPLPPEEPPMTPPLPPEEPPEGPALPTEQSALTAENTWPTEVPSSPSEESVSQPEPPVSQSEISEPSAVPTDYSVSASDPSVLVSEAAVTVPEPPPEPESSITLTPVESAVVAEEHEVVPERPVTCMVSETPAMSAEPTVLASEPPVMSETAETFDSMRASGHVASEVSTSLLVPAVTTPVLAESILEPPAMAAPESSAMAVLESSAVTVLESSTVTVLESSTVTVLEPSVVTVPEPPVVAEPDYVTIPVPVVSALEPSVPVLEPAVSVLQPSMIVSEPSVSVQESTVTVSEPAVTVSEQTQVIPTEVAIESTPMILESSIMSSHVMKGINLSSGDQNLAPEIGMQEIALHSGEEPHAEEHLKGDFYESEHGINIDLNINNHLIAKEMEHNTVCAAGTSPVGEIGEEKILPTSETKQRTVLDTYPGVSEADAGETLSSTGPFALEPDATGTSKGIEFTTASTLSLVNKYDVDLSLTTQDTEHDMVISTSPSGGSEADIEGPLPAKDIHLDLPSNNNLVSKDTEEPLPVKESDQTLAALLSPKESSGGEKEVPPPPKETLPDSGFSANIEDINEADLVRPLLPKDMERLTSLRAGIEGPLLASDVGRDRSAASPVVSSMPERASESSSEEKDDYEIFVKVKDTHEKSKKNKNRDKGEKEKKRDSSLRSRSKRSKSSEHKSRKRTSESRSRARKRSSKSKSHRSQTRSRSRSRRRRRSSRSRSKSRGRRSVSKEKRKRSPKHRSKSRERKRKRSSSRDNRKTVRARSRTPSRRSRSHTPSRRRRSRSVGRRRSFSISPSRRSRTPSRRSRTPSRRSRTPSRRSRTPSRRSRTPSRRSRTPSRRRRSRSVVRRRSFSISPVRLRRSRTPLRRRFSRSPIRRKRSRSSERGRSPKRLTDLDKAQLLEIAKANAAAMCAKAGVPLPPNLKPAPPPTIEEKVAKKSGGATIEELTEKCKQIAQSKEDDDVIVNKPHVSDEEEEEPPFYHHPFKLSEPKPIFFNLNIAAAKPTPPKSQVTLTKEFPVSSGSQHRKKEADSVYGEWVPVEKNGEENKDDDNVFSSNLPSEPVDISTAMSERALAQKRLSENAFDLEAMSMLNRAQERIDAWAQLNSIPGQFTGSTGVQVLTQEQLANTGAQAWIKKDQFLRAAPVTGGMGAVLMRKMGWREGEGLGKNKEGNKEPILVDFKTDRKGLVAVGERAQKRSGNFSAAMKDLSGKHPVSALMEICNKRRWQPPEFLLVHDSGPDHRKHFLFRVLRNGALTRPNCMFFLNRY
UniProt P35251: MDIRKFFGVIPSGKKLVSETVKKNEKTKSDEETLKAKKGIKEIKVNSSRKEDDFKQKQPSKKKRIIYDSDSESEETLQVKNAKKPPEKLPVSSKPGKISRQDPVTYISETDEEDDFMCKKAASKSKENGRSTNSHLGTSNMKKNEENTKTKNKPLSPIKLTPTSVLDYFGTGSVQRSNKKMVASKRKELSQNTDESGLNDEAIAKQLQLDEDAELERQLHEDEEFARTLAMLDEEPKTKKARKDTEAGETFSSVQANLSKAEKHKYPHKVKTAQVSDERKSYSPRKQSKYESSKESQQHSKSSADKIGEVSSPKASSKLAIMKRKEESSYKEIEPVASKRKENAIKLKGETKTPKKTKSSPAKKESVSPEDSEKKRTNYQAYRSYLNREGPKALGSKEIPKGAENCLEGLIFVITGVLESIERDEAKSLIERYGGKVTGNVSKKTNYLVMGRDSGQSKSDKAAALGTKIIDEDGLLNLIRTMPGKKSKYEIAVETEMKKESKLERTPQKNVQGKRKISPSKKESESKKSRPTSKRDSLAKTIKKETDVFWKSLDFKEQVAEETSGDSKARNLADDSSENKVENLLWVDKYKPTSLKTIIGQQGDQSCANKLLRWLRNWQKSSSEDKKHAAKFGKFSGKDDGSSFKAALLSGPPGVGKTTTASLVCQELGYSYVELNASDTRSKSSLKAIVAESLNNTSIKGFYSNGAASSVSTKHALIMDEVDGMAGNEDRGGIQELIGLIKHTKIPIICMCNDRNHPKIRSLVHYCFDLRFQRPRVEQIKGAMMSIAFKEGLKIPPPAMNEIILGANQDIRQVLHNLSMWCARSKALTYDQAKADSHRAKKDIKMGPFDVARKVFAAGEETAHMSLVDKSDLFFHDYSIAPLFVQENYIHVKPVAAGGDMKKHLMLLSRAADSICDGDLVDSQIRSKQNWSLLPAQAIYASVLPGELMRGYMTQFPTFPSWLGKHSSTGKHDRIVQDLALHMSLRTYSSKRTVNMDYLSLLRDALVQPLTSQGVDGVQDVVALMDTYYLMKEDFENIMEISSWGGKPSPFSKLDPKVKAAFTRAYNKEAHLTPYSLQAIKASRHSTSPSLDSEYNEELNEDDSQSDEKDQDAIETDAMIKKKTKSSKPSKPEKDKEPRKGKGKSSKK
UniProt P22087: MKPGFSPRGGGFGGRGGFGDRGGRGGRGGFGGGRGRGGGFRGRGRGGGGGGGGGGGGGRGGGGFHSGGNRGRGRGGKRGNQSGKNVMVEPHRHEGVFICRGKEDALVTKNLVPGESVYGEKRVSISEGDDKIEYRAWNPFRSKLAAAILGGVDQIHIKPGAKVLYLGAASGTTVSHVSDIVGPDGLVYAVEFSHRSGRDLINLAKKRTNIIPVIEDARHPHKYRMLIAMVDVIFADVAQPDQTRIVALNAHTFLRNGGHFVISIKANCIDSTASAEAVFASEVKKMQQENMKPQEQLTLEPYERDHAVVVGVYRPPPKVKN
UniProt P23025: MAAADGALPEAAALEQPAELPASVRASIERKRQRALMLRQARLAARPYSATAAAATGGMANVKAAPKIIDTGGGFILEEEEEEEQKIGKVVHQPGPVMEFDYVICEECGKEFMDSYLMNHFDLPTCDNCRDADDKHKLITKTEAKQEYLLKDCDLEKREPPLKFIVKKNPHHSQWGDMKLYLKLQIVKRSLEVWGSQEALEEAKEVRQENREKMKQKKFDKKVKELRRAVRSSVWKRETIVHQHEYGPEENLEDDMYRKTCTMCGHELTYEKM
UniProt P30084: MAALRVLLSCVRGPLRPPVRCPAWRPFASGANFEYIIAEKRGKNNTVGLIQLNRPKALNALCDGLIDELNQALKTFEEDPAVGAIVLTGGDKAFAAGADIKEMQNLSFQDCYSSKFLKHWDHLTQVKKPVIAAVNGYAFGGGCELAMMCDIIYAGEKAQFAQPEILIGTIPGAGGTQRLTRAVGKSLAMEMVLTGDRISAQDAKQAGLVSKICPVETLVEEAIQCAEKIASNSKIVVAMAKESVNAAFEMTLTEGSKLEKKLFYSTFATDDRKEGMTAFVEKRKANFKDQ
UniProt P32119: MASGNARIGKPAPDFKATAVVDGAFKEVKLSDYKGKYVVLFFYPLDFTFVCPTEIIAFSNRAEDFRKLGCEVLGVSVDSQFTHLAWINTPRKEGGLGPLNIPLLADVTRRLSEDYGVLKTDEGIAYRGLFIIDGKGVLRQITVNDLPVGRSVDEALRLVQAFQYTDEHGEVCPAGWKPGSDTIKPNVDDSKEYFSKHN

Compound: Nc1ncnc2c1ncn2[C@@H]1O[C@H](COP(=O)(O)OP(=O)(O)OP(=O)(O)O)[C@@H](O)[C@H]1O [adenosine triphosphate]
Assay: NP40-soluble protein abundance relative to vehicle (solubility fold change) (ratio); higher = more soluble protein in presence of ATP
Procedure, shortened: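 Data come from three independent experiments in which Dounce-homogenised Jurkat crude lysate was treated at eight concentrations from 0.1 to 10 mM. Treatment ran 10 min at room temperature and then 3 min at 37 °C, after which 0.8% NP40 and benzonase were added for 60 min at 4 °C before ultracentrifugation. The supernatant underwent TMT labelling and LC-MS/MS, and vsn-normalised intensities were expressed as fold change against the detergent-processed vehicle in each replicate.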

Target	NP40-soluble protein abundance (concentration: 0.1mM)	NP40-soluble protein abundance (concentration: 0.5mM)	NP40-soluble protein abundance (concentration: 1mM)	NP40-soluble protein abundance (concentration: 2mM)	NP40-soluble protein abundance (concentration: 4mM)	NP40-soluble protein abundance (concentration: 6mM)	NP40-soluble protein abundance (concentration: 8mM)	NP40-soluble protein abundance (concentration: 10mM)
NKTR (UniProt P30414)	1.06 ± 0.11	1.4 ± 0.094	1.53 ± 0.25	1.63 ± 0.19	1.68 ± 0.23	1.83 ± 0.22	1.75 ± 0.19	1.75 ± 0.22
HOXB4 (UniProt P17483)	0.973 ± 0.061	0.939 ± 0.052						
UniProt P29728-2|A0A087X0V5|P29728	1.13 ± 0.02	1.58 ± 0.04	1.73 ± 0.11	1.65 ± 0.019	1.7 ± 0.046	1.55 ± 0.12	1.74 ± 0.042	1.68 ± 0.047
CCNA2 (UniProt P20248)	0.992 ± 0.06	1.02 ± 0.028	0.998 ± 0.059	0.977 ± 0.027	0.993 ± 0.017	1.03 ± 0.046	0.9881 ± 0.0022	0.995 ± 0.05
UniProt P18583 and related entries	1.05 ± 0.056	1.21 ± 0.046	1.28 ± 0.057	1.3 ± 0.075	1.36 ± 0.099	1.49 ± 0.14	1.45 ± 0.095	1.55 ± 0.13
UniProt P35251 and related entries	1.059 ± 0.01	1.17 ± 0.058	1.23 ± 0.086	1.36 ± 0.093	1.45 ± 0.1	1.58 ± 0.11	1.51 ± 0.069	1.56 ± 0.084
FBL (UniProt P22087)	1.07 ± 0.092	1.031 ± 0.0065	1.11 ± 0.075	1.13 ± 0.058	1.25 ± 0.047	1.544 ± 0.0074	1.93 ± 0.025	2.51 ± 0.15
UniProt P25398	0.907 ± 0.066	0.892 ± 0.021	0.879 ± 0.058	0.861 ± 0.073	0.813 ± 0.071	0.817 ± 0.087	0.761 ± 0.043	0.779 ± 0.061
XPA (UniProt P23025)	0.965 ± 0.018	1.03 ± 0.053	0.975 ± 0.021	0.979 ± 0.033	0.965 ± 0.054	1.02 ± 0.027	0.954 ± 0.1	0.968 ± 0.05
ECHS1 (UniProt P30084)	0.989 ± 0.028	1.03 ± 0.058						
PRDX2 (UniProt P32119)	0.988 ± 0.099	0.984 ± 0.14						
